Data taken from ChEMBL document CHEMBL3351924, “Detailed analysis and follow-up studies of a high-throughput screening for indoleamine 2,3-dioxygenase 1 (IDO1) inhibitors” (Eur J Med Chem, 2014).
≈ marks a conversion by molar mass, not a printed value.

Experiment: Solubility of the compound in pH 6.5 phosphate buffer containing 5% DMSO

## COC(=O)C1=C(C)NC(C)=C(C(=O)OC)C1c1ccccc1[N+](=O)[O-] [NIFEDIPINE]
  solubility: 250 µM (≈ 86.6 µg/mL)
